Measurements reported in article PMC10608451, “Affinity Purification and Molecular Characterization of Angiotensin-Converting Enzyme (ACE)-Inhibitory Peptides from Takifugu flavidus” (Marine Drugs, 2023).
Results are given in words; binding and its absence hold for the method and conditions named. In cells and extracts the contact can be indirect. These calls come from enrichment with a bait or labelling near it, and not all partners need be listed.

T1: angiotensin-I-converting enzyme (UniProt P12822 34-1260)
T1 sequence (looked up): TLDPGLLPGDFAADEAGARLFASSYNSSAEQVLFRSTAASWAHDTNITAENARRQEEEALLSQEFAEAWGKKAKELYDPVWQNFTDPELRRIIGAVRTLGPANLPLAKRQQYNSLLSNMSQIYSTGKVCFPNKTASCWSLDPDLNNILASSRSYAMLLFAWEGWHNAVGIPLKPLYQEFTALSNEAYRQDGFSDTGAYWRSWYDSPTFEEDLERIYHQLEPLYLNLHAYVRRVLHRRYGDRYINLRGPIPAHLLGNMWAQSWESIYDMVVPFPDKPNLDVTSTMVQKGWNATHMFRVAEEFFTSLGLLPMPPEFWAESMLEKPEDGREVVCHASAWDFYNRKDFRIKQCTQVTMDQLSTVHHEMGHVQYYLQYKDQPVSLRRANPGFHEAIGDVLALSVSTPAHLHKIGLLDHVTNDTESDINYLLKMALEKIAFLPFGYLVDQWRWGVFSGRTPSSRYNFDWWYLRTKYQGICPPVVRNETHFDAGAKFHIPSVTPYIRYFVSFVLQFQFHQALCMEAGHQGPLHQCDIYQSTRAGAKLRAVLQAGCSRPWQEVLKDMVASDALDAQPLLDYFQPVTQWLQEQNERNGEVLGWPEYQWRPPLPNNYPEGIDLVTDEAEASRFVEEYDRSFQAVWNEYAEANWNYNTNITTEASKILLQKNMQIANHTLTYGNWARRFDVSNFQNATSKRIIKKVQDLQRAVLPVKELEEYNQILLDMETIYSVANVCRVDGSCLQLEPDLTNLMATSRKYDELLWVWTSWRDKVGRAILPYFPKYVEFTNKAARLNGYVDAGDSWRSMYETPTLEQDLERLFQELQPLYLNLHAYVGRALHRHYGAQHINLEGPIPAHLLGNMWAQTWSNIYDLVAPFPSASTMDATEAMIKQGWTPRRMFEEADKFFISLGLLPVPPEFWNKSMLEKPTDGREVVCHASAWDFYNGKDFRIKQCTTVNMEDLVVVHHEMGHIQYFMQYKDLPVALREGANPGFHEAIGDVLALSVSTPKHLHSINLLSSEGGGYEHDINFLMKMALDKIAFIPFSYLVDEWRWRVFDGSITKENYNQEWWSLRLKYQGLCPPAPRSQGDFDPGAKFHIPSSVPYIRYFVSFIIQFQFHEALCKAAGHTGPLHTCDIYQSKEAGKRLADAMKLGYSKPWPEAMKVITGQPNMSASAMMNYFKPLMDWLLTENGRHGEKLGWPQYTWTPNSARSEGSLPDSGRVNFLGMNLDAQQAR

B1: TLRFALHGME (peptide)
peptide: TLRFALHGME
notes: source: Takifugu flavidus skin hydrolysate (alcalase, <1 kDa fraction); also synthetic peptide (Fmoc solid phase, Genscript)

Each binder was assayed against T1, angiotensin-I-converting enzyme (assay: affinity purification with mass spectrometry; ACE covalently immobilised on CNBr-activated Sepharose 4B; T. flavidus hydrolysate (<1 kDa) loaded in 50 mmol/L Tris-HCl pH 7.4, washed, eluted with 1 mol/L NaCl; eluate sequenced de novo by LC-MS/MS (ALC >= 80%); only the target purified).

**Q.** For SATVPDPLPVVN, which binding is on record?
**A.** binds

**Q.** For TYPFPV, which binding is on record?
**A.** binds

**Q.** With ELLVQN as the binder, how does the binding read?
**A.** binds

**Q.** Which binding does the source give for DVFRVT here?
**A.** binds

**Q.** For FLPELT, which binding is on record?
**A.** binds

**Q.** For HPPLQ, which binding is on record?
**A.** binds

**Q.** How did the binding turn out when ELALQ was run?
**A.** binds

**Q.** For TLFGL, which binding is on record?
**A.** binds

**Q.** With FAVET as the binder, how does the binding read?
**A.** binds

**Q.** Which binding does the source give for LLGGGA here?
**A.** binds

**Q.** With NESNPDYLVR as the binder, how does the binding read?
**A.** binds

**Q.** TFTGA was tested. Which binding did it give?
**A.** binds

**Q.** B1 was tested. Which binding did it give?
**A.** binds

**Q.** Which binding does the source give for NNLFDQSGTVK here?
**A.** binds

**Q.** Which binding does the source give for SGVGDGDLPELT here?
**A.** binds

**Q.** KDVDVLDSVL was tested. Which binding did it give?
**A.** binds

**Q.** TCDKVQEVR was tested. Which binding did it give?
**A.** binds

**Q.** TSTPTKVL was tested. Which binding did it give?
**A.** binds

**Q.** Which binding does the source give for RSTGALAL here?
**A.** binds
